The list shows a part of the results. The data scatter; read single values as rough.
Columns and labels:
[1] = compound: ClCC(=O)N[C@@H]1CCCc2ccccc12; test: log2 mean competition ratio of IA-DTB cysteine labelling (DMSO/compound) (log2 ratio); higher = stronger cysteine engagement by compound; conditions: treatment time: 4 h, cell line lysate: HEK293T
Procedure: (§1)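 IA-DTB competitive cysteine chemoproteomics in HEK293T RIPA lysate. Lysates were treated with compound 29 or 30 at 50 or 200 µM for 4 h, then IA-DTB (500 µM, 1 h), trypsin-digested, NeutrAvidin-enriched and analysed by diaPASEF. Competition ratio = intensity DMSO / intensity compound (n=4 treated, n=64 DMSO); binding: mean log2 CR ≥ 1 and p ≤ 0.05 plus QC filters. Target is the cysteine site.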

Protein sequences, listed by entry. Tags and fused reporters are not part of them. Lines headed by an entry give the natural chain unless they say otherwise; changes in a name come on top. Residues count along the entry.
UniProt Q15154: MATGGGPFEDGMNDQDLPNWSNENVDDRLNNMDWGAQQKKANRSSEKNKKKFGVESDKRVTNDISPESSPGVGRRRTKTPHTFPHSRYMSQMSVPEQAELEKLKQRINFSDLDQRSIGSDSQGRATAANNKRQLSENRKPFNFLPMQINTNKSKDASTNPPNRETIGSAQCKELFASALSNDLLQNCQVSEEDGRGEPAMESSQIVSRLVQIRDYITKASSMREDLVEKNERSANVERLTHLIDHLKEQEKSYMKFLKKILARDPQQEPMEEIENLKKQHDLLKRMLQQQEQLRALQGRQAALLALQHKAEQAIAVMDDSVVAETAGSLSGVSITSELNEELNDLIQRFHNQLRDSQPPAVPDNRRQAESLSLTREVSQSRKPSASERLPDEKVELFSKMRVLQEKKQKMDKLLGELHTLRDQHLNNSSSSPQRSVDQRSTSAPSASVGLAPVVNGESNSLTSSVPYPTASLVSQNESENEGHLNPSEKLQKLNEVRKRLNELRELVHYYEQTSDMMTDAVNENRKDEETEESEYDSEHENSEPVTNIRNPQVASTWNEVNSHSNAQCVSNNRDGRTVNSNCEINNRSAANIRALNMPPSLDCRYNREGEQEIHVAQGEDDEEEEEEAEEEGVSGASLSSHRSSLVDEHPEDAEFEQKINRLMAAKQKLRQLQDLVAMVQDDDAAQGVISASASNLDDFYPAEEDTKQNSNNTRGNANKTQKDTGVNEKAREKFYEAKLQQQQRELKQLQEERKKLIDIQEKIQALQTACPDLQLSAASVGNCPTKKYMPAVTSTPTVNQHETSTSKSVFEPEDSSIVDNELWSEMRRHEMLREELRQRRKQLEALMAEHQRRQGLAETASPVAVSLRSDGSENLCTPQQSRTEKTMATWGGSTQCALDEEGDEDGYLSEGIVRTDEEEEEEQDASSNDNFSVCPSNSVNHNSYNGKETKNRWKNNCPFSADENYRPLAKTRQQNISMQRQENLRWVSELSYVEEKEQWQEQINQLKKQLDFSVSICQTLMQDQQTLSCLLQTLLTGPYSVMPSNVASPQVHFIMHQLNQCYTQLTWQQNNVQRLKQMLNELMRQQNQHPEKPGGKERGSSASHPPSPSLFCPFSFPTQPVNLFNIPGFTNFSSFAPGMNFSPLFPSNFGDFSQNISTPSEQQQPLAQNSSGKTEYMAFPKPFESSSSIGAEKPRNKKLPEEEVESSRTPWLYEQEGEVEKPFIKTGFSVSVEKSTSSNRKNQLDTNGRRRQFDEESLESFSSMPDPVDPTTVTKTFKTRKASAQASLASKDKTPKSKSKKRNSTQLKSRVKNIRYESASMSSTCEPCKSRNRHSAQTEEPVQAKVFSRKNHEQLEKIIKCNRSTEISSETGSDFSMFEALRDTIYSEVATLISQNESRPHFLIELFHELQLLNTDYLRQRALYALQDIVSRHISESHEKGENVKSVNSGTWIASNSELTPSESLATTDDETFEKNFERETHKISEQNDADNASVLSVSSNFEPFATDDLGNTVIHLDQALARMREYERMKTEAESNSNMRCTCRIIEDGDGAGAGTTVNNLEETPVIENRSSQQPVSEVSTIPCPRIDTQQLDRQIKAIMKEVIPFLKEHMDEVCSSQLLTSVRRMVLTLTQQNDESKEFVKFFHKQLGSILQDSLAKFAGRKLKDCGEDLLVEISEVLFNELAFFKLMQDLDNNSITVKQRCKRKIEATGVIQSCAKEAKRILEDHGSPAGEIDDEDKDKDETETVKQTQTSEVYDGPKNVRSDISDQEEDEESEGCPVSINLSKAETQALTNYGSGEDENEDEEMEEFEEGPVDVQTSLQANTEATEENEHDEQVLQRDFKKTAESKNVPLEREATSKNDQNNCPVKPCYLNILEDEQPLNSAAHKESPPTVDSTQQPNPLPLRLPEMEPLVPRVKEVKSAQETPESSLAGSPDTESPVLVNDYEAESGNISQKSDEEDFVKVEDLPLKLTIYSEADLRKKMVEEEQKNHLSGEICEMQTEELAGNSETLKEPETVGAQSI
UniProt Q6P996: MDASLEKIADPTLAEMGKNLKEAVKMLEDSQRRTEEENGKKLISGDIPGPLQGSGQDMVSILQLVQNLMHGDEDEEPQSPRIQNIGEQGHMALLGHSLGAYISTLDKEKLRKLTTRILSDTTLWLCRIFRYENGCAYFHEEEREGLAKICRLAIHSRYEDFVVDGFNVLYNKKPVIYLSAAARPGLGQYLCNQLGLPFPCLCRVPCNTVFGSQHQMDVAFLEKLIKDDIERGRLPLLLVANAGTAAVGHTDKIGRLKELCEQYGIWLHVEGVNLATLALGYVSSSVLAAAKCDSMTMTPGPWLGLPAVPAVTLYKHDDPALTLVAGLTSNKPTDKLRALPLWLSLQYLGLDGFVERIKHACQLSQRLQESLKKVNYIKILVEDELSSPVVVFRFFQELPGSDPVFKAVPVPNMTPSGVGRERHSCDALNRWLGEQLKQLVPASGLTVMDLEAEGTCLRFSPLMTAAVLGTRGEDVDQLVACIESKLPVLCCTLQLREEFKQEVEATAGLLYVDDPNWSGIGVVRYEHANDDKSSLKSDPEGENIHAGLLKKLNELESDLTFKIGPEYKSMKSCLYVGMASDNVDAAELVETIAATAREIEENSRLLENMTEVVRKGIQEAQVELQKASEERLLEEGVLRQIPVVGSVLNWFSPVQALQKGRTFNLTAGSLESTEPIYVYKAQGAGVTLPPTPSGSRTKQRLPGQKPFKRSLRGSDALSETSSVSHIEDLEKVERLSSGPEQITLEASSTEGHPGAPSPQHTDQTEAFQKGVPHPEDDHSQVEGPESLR
UniProt Q8TEW0, 51-74: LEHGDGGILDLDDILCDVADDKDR
UniProt Q15102: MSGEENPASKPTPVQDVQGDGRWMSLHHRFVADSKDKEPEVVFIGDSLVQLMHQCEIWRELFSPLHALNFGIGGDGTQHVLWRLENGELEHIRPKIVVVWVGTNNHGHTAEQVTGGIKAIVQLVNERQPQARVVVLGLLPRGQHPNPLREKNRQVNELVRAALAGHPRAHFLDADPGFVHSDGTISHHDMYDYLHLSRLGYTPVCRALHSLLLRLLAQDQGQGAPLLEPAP
UniProt O95613, 550-572: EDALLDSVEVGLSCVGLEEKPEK
UniProt Q504Q3: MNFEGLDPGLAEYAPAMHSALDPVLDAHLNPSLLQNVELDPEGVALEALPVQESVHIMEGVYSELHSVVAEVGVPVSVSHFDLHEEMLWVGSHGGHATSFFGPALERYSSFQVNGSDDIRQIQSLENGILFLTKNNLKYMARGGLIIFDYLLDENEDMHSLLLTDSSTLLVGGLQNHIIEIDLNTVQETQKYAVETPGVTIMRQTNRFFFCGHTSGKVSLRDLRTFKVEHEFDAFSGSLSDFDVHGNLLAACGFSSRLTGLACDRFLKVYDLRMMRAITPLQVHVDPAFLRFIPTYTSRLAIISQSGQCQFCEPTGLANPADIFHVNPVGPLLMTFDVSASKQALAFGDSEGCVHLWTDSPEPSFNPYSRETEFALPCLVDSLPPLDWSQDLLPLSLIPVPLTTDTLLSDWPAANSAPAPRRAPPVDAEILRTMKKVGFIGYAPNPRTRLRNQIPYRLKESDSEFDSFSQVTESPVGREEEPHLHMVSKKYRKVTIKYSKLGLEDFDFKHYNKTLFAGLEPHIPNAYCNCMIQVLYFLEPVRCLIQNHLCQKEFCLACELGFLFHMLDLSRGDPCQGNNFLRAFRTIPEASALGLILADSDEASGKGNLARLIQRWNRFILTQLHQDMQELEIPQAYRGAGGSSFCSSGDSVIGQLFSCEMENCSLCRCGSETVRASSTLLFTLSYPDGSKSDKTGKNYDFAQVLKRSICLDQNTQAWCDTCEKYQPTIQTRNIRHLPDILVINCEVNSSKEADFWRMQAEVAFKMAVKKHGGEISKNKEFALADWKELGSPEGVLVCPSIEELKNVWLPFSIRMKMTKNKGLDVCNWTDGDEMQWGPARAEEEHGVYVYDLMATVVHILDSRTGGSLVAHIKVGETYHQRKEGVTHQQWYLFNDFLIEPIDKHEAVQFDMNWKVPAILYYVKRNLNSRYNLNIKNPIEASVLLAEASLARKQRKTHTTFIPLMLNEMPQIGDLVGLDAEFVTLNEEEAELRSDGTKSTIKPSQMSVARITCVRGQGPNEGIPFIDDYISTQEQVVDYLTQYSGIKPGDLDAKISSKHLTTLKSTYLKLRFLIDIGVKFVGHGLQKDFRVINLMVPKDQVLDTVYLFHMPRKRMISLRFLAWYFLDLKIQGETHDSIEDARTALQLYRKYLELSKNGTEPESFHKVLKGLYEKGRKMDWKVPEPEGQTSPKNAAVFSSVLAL
UniProt O95747, whole entry, looked up: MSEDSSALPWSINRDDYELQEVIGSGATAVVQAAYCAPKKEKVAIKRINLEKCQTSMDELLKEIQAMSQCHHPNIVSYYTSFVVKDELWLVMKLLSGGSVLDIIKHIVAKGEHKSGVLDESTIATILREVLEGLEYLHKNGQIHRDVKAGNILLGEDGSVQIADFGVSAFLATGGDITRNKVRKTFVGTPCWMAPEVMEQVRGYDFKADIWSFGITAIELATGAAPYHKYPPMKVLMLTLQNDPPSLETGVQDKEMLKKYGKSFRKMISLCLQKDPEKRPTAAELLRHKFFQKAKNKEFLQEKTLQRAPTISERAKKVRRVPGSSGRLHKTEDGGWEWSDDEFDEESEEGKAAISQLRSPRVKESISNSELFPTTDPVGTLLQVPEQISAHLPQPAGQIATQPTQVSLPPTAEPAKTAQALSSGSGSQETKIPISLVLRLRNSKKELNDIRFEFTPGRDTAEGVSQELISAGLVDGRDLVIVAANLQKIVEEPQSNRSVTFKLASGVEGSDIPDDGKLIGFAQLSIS
UniProt Q86YH6: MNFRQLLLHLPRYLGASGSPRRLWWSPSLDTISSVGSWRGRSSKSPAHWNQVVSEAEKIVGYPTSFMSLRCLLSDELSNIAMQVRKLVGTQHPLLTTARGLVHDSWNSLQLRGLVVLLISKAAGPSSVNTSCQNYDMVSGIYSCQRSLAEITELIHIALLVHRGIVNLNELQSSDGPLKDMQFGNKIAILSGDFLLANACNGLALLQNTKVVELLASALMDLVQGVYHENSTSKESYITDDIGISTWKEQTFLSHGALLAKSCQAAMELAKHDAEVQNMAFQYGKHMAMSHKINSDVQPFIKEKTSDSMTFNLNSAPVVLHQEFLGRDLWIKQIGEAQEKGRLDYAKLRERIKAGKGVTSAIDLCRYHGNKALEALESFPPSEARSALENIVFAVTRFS
UniProt Q29RF7, 518-538: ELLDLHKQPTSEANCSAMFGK
UniProt Q9BRP1: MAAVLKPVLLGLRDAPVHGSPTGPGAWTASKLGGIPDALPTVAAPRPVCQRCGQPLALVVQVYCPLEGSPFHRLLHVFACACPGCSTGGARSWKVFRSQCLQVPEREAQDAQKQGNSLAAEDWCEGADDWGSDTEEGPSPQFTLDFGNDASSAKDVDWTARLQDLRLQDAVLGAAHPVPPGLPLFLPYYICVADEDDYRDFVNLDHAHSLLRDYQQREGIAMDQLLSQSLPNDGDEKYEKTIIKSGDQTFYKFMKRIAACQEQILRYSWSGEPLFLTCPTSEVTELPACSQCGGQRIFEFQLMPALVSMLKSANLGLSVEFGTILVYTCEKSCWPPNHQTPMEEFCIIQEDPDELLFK
UniProt P12955: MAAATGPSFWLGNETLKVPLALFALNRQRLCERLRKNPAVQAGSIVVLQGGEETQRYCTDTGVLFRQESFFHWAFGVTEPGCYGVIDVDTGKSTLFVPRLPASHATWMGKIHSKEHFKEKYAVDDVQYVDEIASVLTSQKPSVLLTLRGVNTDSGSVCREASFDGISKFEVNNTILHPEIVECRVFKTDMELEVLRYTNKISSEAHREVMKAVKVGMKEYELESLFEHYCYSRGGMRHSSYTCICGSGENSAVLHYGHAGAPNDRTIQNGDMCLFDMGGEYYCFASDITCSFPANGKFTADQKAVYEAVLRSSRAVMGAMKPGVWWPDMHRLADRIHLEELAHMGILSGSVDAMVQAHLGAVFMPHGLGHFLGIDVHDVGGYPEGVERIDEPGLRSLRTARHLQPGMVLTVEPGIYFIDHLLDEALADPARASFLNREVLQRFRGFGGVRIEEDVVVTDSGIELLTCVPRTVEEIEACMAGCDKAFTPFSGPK
UniProt P30039, 18-37: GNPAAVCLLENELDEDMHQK
UniProt P12004: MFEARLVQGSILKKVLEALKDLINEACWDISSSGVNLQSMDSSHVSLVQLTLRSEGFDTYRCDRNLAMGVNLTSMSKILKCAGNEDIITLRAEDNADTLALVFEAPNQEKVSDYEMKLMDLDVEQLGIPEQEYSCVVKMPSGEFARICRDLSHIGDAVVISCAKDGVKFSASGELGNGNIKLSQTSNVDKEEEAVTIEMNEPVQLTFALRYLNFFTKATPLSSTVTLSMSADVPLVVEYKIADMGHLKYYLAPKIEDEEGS
UniProt Q8WZ82: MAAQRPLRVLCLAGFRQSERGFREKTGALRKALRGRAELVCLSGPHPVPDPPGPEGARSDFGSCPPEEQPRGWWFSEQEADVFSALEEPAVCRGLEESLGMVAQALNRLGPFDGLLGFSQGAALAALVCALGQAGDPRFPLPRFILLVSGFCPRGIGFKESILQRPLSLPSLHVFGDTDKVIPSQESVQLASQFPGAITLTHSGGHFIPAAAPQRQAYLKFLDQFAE

[2] = compound: ClCC(=O)N[C@H]1CCCc2ccccc12; test: as above; conditions: treatment time: 4 h, cell line lysate: HEK293T
Procedure: as §1

Target	log2 mean competition ratio ([1]; 50 µM)	log2 mean competition ratio ([1]; 200 µM)	log2 mean competition ratio ([2]; 50 µM)	log2 mean competition ratio ([2]; 200 µM)
PDE8A C338 (UniProt O60658)	-0.28	-0.19	-0.595	-0.161
PELO C258 (UniProt Q9BRX2)	-0.0431	-0.101	-0.112	-0.0552
PEX19 C128 (UniProt P40855)	-0.32	0.127	-0.043	0.142
PCYOX1L C250 (UniProt Q8NBM8)	0.0436	-0.133	0.0139	-0.0938
PACS1 C116 (UniProt Q6VY07)	0.0549	-0.0869	0.0936	-0.0449
PARP2 C288 (UniProt Q9UGN5)	-0.166	0.00279	-0.0524	-0.0714
PHF19 C498 (UniProt Q5T6S3)	0.282	-0.349	0.0405	-0.142
PCM1 C957 (UniProt Q15154)	0.165	0.32	-0.261	0.288
PFAS C336 (UniProt O15067)	-0.188	-0.0409	-0.255	-0.0187
PDE1B C282			-0.131	-0.0092
PDXDC1 C135 (UniProt Q6P996)	0.334	-0.227	-0.49	-0.176
PARD3 C66 (UniProt Q8TEW0)			-0.356	0.454
PDE5A C68 (UniProt O76074)			0.251	0.0192
PDK2 C392 (UniProt Q15119)			0.415	0.175
PCM1 C1717 (UniProt Q15154)			0.365	0.0515
PAFAH1B3 C205 (UniProt Q15102)			0.297	0.0469
PEX1 C1185 (UniProt O43933)			-0.214	0.0491
PEAK1 C1437 (UniProt Q9H792)	0.0693		0.0367	-0.196
PCNT C563 (UniProt O95613)	-0.196	-0.551	0.199	-0.456
PATJ C941			0.248	0.0137
PDXDC1 C361 (UniProt Q6P996)			0.32	-0.439

Random excerpt: 3 entries already listed, in no set order.
Target	log2 mean competition ratio ([1]; 50 µM)	log2 mean competition ratio ([1]; 200 µM)	log2 mean competition ratio ([2]; 50 µM)	log2 mean competition ratio ([2]; 200 µM)
PCYOX1L C250 (UniProt Q8NBM8)	0.0436	-0.133	0.0139	-0.0938
PCM1 C1717 (UniProt Q15154)			0.365	0.0515
PATJ C941			0.248	0.0137

Later entries

Target	log2 mean competition ratio ([1]; 50 µM)	log2 mean competition ratio ([1]; 200 µM)	log2 mean competition ratio ([2]; 50 µM)	log2 mean competition ratio ([2]; 200 µM)
PDLIM1 C307 (UniProt O00151)			-0.106	0.328
PAN2 C826 (UniProt Q504Q3)				-0.307
PGK1 C99 (UniProt P00558)	-0.323	0.376	-0.202	0.211
PCID2 C152 (UniProt Q5JVF3)			-0.104	0.0215
PDE7A C402			0.153	0.426
PHC2 C809 (UniProt Q8IXK0)			-0.0384	-0.341
OXSR1 C53 (UniProt O95747)			-0.103	-0.207
PDSS2 C365 (UniProt Q86YH6)				0.312
PCIF1 C626 (UniProt Q9H4Z3)	0.197	-0.338	0.184	-0.119
PBX1 C220	-0.211	0.197	-0.411	0.18
P4HA2 C529 (UniProt O15460)	0.215	-0.0718	0.431	-0.141
P4HA1 C503 (UniProt P13674)	0.0269	-0.0782	0.341	-0.0239
PDS5A C589 (UniProt Q29RF7)	-0.27	0.431	0.14	0.428
OXCT1 C456 (UniProt P55809)			0.464	0.142
PDCD2L C260 (UniProt Q9BRP1)			-0.314	0.0357
PAAT C353 (UniProt Q9H8K7)			-0.121	-0.0553
PGD C289			-0.316	-0.0767
PARG C943 (UniProt Q86W56)	-0.193	-0.0495	-0.165	-0.0515
PCM1 C876 (UniProt Q15154)	0.0113	0.137	-0.0288	0.242
PCNT C2576 (UniProt O95613)	-0.00424	-0.25	-0.167	-0.183
PEPD C58 (UniProt P12955)			-0.234	-0.11

Target	log2 mean competition ratio ([1]; 50 µM)	log2 mean competition ratio ([1]; 200 µM)	log2 mean competition ratio ([2]; 50 µM)	log2 mean competition ratio ([2]; 200 µM)
PFKFB3 C178 (UniProt Q16875)				-0.0725
PDCD2L C100 (UniProt Q9BRP1)	-0.169	-0.128	-0.000238	-0.0754
PFKL C708 (UniProt P17858)	0.123	0.227	0.0578	0.268
PALM3 C231 (UniProt A6NDB9)			-0.052	-0.414
PAK4 C462 (UniProt O96013)			0.255	0.202
PGM3 C348			0.205	-0.137
PBLD C24 (UniProt P30039)			0.0065	0.00391
PER1 C368 (UniProt O15534)			-0.0539	0.394
PDLIM1 C263 (UniProt O00151)			0.0543	-0.0889
PDS5A C532 (UniProt Q29RF7)			-0.258	0.377
PCNT C2628 (UniProt O95613)			-0.0854	-0.0245
PDE5A C447 (UniProt O76074)			0.167	0.304
PGM3 C249			-0.297	0.126
PGAM5 C168 (UniProt Q96HS1)			0.199	-0.101
PCNA C162 (UniProt P12004)			-0.108	-0.0705
OVCA2 C64 (UniProt Q8WZ82)			0.0817	-0.32
PGK1 C50 (UniProt P00558)			0.669	0.289
PAN2 C575 (UniProt Q504Q3)			0.683	0.094
PDS5B C579 (UniProt Q9NTI5)			0.0343	0.544
PABIR1 C206			0.0955	0.191

From the supplement of paper PMC11732987, “Enantioselective OTUD7B fragment discovery through chemoproteomics screening and high-throughput optimisation” (Communications Chemistry, 2025)
